The data set is described as follows: general procedure: solution-phase peptide synthesis; N-methyl-N-p-toluenesulfonyl ethynylamine.

* marks the point of attachment. Cbz = O=C(OCc1ccccc1)*; OtBu = CC(C)(C)O*

On to Cbz-AFME(OtBu)-OH, for which the step yield (coupling step) worked out at 92%.

carfilzomib gave an isolated yield (whole synthesis, overall, scale of the general procedure 0.5 mmol) of 70%.

These data come from patent publication US20260008808 (published 2026).
